# Patent US8030452B2, “IFBM'S to promote the specific attachment of target analytes to the surface of orthopedic implants” (priority 2004, dated 2011)
# Chains of the proteins cited; added tags and fusions are not shown. Residues count along the entry.
# UniProt P12643, 283-396: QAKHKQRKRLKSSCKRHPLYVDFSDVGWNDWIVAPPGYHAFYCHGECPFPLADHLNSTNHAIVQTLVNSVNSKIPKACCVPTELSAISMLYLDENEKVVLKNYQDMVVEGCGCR
# Molecular target: BMP on collagen sponge (Homo sapiens, UniProt P12643)
# Conditions: IFBM mixed with BMP, 1.5 hours on sponge, compared to no IFBM (FIG. 5)
# Protocol: To each well, a 2/16″ diameter collagen sponge (Medtronic) was added. The collagen and peptide solutions were allowed to incubate for 1.5 hours at room temperature. Sponges were then rinsed three times with 200 μL Medtronic buffer at 2200 rpm for 1 minute. To each sponge, a primary antibody directed at BMP (diluted 1:1000; R&D Systems #MAB3552) was added for 1 hour at room temperature. A secondary antibody conjugated to alkaline phosphatase (1:5000) was then incubated in the system for 0.5 hour at room temperature.
smiles,measurement,value
CC(C)C[C@H](NC(=O)[C@H](C)NC(=O)[C@H](CO)NC(=O)[C@H](Cc1ccccc1)NC(=O)[C@H](CO)NC(=O)[C@H](CO)NC(=O)[C@H](Cc1ccccc1)NC(=O)[C@H](C)NC(=O)[C@H](CO)NC(=O)[C@H](CC(=O)O)NC(=O)[C@H](CO)NC(=O)[C@H](CO)NC(=O)[C@H](CCCNC(=N)N)NC(=O)[C@@H](N)CO)C(=O)N[C@@H](CCC(=O)O)C(=O)NCC(=O)N[C@@H](CO)C(=O)N[C@H](C(=O)N[C@H](C(=O)N[C@@H](CO)C(=O)N[C@@H](CCCNC(=N)N)C(=O)NCC(=O)N[C@@H](CO)C(=O)N[C@@H](CO)C(=O)NCC(=O)N[C@@H](CCCCNC(=O)CCCC[C@@H]1SC[C@@H]2NC(=O)N[C@@H]21)C(N)=O)C(C)C)C(C)C [compound 2006],BMP retained on collagen sponge,increased retention of BMP to the sponge is not seen
